Results are given in words; binding and its absence hold for the method and conditions named. Binding seen in cells or lysates may run through a third protein. Some binding calls cover weakened binding; strength is not graded here.
What was measured:
[1] = target: PI3K p85α subunit (human (endogenous in PANC-1)) (UniProt P27986); assay: co-IP; 500 µg PANC-1 lysate protein on Protein A magnetic beads with 1 µg TRPC1 antibody or PI3K p85α antibody, 2 h at room temperature, Western blot; cells grown at pH 7.4, pH 6.5 or pH 7.4R; non-transfected, or transfected with siCTRL or siTRPC1
[2] = target: transient receptor potential C1 (TRPC1) (human (endogenous in PANC-1)) (UniProt P48995); assay: proximity ligation; Duolink in situ PLA on fixed, permeabilised PANC-1 cells grown at normal pH (7.4), acid-adapted (pH 6.5) or acid-recovered (pH 7.4R); non-transfected, or transfected with siCTRL or siTRPC1; puncta per cell counted
[3] = target: transient receptor potential C1 (TRPC1) (human (endogenous in PANC-1)) (UniProt P48995); assay: co-IP; 500 µg PANC-1 lysate protein on Protein A magnetic beads with 1 µg TRPC1 antibody or PI3K p85α antibody, 2 h at room temperature, Western blot; cells grown at pH 7.4, pH 6.5 or pH 7.4R; non-transfected, or transfected with siCTRL or siTRPC1

By UniProt entry, the sequences of proteins in these tests, tags left out.
UniProt P27986: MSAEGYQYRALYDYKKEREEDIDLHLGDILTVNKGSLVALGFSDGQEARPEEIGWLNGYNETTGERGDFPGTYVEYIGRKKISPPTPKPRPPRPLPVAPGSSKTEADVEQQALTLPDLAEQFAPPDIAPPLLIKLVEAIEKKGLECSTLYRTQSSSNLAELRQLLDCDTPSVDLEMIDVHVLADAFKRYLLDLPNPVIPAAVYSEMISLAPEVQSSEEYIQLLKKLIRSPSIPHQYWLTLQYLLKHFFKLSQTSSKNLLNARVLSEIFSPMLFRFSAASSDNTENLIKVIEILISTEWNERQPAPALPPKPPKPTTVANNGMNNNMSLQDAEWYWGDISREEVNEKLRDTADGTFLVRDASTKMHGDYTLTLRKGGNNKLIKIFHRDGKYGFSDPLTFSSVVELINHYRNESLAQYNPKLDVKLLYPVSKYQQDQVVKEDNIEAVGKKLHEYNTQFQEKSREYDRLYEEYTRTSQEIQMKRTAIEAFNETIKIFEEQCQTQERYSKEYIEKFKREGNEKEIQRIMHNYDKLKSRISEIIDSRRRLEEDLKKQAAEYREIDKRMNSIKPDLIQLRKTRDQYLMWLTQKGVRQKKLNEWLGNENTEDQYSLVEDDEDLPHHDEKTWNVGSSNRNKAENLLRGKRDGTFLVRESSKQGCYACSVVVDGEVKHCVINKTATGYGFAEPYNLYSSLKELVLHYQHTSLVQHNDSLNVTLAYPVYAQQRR
UniProt P48995: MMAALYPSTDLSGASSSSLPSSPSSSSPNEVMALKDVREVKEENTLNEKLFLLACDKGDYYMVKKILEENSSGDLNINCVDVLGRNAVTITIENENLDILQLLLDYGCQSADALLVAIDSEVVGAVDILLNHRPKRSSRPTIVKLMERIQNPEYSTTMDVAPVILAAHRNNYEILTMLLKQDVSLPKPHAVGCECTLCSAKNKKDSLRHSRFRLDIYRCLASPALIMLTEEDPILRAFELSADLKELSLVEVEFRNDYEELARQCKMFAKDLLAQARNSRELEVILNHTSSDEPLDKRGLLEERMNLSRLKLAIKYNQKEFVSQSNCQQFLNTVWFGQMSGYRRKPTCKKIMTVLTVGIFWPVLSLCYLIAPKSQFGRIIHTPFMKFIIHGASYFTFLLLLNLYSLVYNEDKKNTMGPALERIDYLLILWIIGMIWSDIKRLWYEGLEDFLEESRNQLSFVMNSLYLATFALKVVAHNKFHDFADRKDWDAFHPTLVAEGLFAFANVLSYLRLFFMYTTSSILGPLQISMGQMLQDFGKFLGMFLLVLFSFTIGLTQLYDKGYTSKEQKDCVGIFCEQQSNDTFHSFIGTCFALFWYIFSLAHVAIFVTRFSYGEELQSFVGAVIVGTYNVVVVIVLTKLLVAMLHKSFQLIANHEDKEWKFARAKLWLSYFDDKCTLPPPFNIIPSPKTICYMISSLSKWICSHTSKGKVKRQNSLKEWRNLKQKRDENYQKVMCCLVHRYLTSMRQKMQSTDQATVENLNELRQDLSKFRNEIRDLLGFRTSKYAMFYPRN

| binding [1] | binding [2] | binding [3] | Substance |
| --- | --- | --- | --- |
| binds | – | – | transient receptor potential C1 (TRPC1) (from UniProt P48995 1-793) |
| – | binds | binds | PI3K p85α subunit (from UniProt P27986 1-724) |

From paper PMC9563726
